Library screening results

Each number is a percent effect as filed. How 0% and 100% were set is not recorded. Most values in the screen are low, and negative values occur. The compounds are a random part of those screened. Two or more numbers in one place are separate tests of the same structure; such repeats can differ widely.

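Viability assay of Plasmodium falciparum sporozoites; the read-out is not stated. The concentration is filed as 10 mM, unlikely as a test dose, so the dose is not known. Direction is inferred from retests: higher values go with lower viability. Strong results were mostly tested again. Size under these conditions: about 34,000 compounds, about 280 of them at 50% or above in at least one test.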

CN1CCC(c2cc(C(F)(F)F)n3ccnc3n2)CC1 gave -4.017%. Cn1nnnc1SCC1COc2ccccc2O1 (stereo not given) gave 5.455%. With CCn1cc(NC(=O)Nc2ccc3c(c2)OCCO3)cn1 the screen gave 64.15% & 57.73% & 68.6%. Cc1nc(N2CCCC2)nc2c1CN(C(C)C)CC2.O=C(O)C(F)(F)F gave 2.489%. For N#CCCCS(=O)(=O)NC1(c2ccc(F)cc2)CC1 the result was -15.66%. CC(Nc1ccn(Cc2ccccn2)n1)C(=O)NC(C)(C)C (stereo not given) read -19.15%.

With CC(=O)N1CCC1c1cc(N2CCNC(=O)C2)nc(C)n1 (stereo not given) the screen gave -4.612%. With O=C(O)C(F)(F)F.O=C1CC(c2ccccc2)C2(CCN(CC3CC3)CC2)N1 (stereo not given) the screen gave -4.004%. Result for CN(Cc1nc2ccccc2o1)C1CCCN(c2cccnn2)C1 (stereo not given) was 7.757%. [H][C@]12CCN(C(=O)NCc3cccc(F)c3)C[C@@]1([H])OCCN(C)C2 gave 8.347%. Result for Cc1cc(C)nc(N2CC=C[C@@H]2C(=O)NCc2ccc3c(c2)OCO3)n1.Cl was 1.343%. NCCn1nc(C2CCN(C(=O)Cc3ccccc3)C2)c2nccnc21 (stereo not given) gave -7.401%.

CN(C)c1cc(C2CCCN(S(=O)(=O)c3cn(C)cn3)C2)ccn1 (stereo not given) gave 7.759%. CCc1cc(N(C)Cc2ccnc(C)c2)n2nc(C)c(C)c2n1 read 6.615%. [H][C@]12CCN(c3ccc(Cl)cn3)C[C@]1(COC)CC[C@@H](N1CCOCC1)C2 gave -4.52%. Result for CN(C)S(=O)(=O)NCC(O)c1cc2ccccc2s1 (stereo not given) was 2.176%. CSC(C)CCN1CCCn2nc(CNC(=O)C3CCC3)cc2C1 (stereo not given) gave 2.368%. For CNC(=O)c1ccc(CNC(=O)NCCN(C)C2CCCC2)cc1 the result was 3.542%.

With Cc1n[nH]c(C2CN(C(=O)CCc3cscn3)CCO2)n1 (stereo not given) the screen gave -5.224%. [H][C@@]12CS(=O)(=O)C[C@]1([H])N(C(=O)CN(C)CC)CCN2Cc1ccccc1 gave 2.095%. Result for COCC1CN(Cc2ccsc2)Cc2cnn(C)c21 (stereo not given) was 18.33%. With CCNc1nc(-c2cccnc2)c(-c2ccnc(N3CCOCC3)n2)s1 the screen gave 18.88%. O=C(c1ccco1)N1CCCC(c2cc(C(F)(F)F)[nH]n2)C1 (stereo not given) gave 6.732%. CC(C)(C)c1cc(NC(=O)CN2CCC(N3CCNC3=O)CC2)on1 gave 1.35%.

Result for O=C1CN(c2ccc(CNC(=O)NCC3CCOC3)cc2)CCN1 (stereo not given) was -0.3253%. Cc1ccccc1S(=O)(=O)NC(=O)C1(c2ccccc2)CCC1 read -7.067% & -4.669%. CCOCCN(CCOCC)c1nc(C)nc2sccc12 read 3.972% & -1.592%. For Cc1noc(C)c1-c1cncc(C2CCCN2Cc2c[nH]cn2)n1 (stereo not given) the result was 4.183%. Result for O=C(O)C(F)(F)F.O=C(O)C(F)(F)F.[H][C@@]12COC[C@H](C(=O)NCc3ccccn3)[C@]1([H])CN(C1CCCC1)C2 was 1.46%. CCNc1ncc(C(=O)NCCc2csc(CSC)n2)cn1 read -5.329%.

For FC(F)(F)Oc1ccc(-c2noc([C@@H]3Cc4nc[nH]c4CN3)n2)cc1 the result was 93.02% & 93.75%. For CC1c2ncc(CNC(=O)C3CC3)n2CCN1Cc1cnn(C)c1.O=C(O)C(F)(F)F.O=C(O)C(F)(F)F (stereo not given) the result was -8.117%. With O=C(O)C(F)(F)F.[H][C@@]12CN(C(=O)C3CC3)C[C@]1([H])C(=O)N(Cc1csc(C)n1)C2 the screen gave 3.886%. Cc1cnc(CN2CCCC2c2cnn(C)c2)cn1 (stereo not given) read 6.277%. Result for c1ccc(CSc2nnc(C3CC3)s2)nc1 was 9.232%. O=C(c1cc(-c2cccs2)on1)N1CCCCC1Cn1cccn1 (stereo not given) read -4.593%.

For CC(C)n1cnc2c1C(C(=O)NCCO)N(Cc1ccccc1)CC2.O=C(O)C(F)(F)F (stereo not given) the result was 0.3331% & -5.448%. Cc1cccc(CN2CCOC3(COCCN(CCN(C)C)C3)C2)n1.O=C(O)C(F)(F)F.O=C(O)C(F)(F)F.O=C(O)C(F)(F)F (stereo not given) gave 5.99%. CCOc1cc(CN[C@@H]2COC[C@H]2Cc2cc(C)no2)ccc1O.O=C(O)CC(O)(CC(=O)O)C(=O)O gave -3.362% & -14.39% & -10.48%. NC(=O)C1CCN(c2ccc(C(=O)N3CCc4ccccc43)cn2)C1 (stereo not given) gave -14.1%. Result for Cc1nc(N)cc(C2CN(C(=O)c3ccn(C)n3)CCO2)n1 (stereo not given) was -14.34%. For Cc1nc(-c2nnc[nH]2)sc1C(=O)N(Cc1cccnc1)C1CC1 the result was 14.81%.

For O=C(c1ccc[nH]1)N1CCc2nnc(Cn3cccc3)n2CC1 the result was -1.113%. With CNc1nc(CNC(=O)Nc2ccc(SC)c(F)c2)cs1 the screen gave -7.239%. With Cc1cc(CN2CCc3nc(N4CCOCC4)nc(O)c3CC2)c(C)s1 the screen gave -2.11%. For Cc1nn(C)c(C)c1C1CCCN1c1ncnc2sccc12 (stereo not given) the result was -0.7353%. Cc1nn(C(=O)c2cccnc2)c(C)c1C read 12.44%. Cl.c1nc(CCC2CCCCN2)cc(N2CCCC2)n1 (stereo not given) read 2.486%.

For CN1CC(C(=O)NCc2cccnc2-n2cccn2)CC1=O (stereo not given) the result was -5.408%. CCOc1ccc(Cl)c(C(=O)N2CCN(CCO)CC2)n1 read -2.289%. With Cc1nc(CN2CCCC(N(C)Cc3c(C)noc3C)C2)no1 (stereo not given) the screen gave -5.318%. For c1cnc2c(C3CCN(Cc4ccsc4)CC3)n[nH]c2n1 the result was 1.066%. Result for COCCCOc1ccc(C(=O)N(C)Cc2cccc(O)c2)cn1 was -11.27%. Cc1nc(N)cc(C2CN(C(=O)c3cscn3)CCO2)n1 (stereo not given) gave 1.421%.

Cc1cc(C)n(C2CN(CC(O)c3cc(F)ccc3F)C2)n1 (stereo not given) gave -4.89%. CC(C)(C)NC(=O)C1(Cc2ccccc2-c2ccncc2)CCOCC1 gave 7.51%. For Cc1csc(C2(NCc3nc(-c4ccco4)oc3C)CCCC2)n1 the result was 14.35%. For CC(C)C(=O)N1CCC(c2nc(O)cc(-c3ccncc3)n2)CC1 the result was -4.147%. CC(C)N(Cc1cccnc1)C(=O)CSc1ccc(C#N)cc1 read 0.333%. Result for O=C(NCCc1ccccc1)C1CCCN(c2ccc3nncn3n2)C1 (stereo not given) was 4.054%.

Result for Cc1ccc(CN2CCN(Cc3ccc4nonc4c3)CC2=O)cc1 was -10.96%. Result for Fc1cccc(-c2nnn3c2COC(CNc2ncccn2)C3)c1 (stereo not given) was 9.115%. Nc1nc(N)c2c(n1)OC1(CCN(Cc3nccs3)C1)C2 (stereo not given) read 7.663%. Cc1cccc(Nc2cccc(C3CCCN(Cc4ncc[nH]4)C3)n2)n1 (stereo not given) gave 1.652%. Cc1nccc(-c2cccc(-c3ccn(CC4CCNC4)n3)c2)n1 (stereo not given) read -3.675% & -28.15% & -23.4%. With COc1ccc(Br)c(C(=O)NCC2CCN(S(=O)(=O)C3CC3)CC2)c1 the screen gave -1.535%.

CC(=O)NCC1CCN(c2ccnc3ccc(Br)cc23)CC1 gave -9.55%. CN(C)Cc1ccc(C2CCCCN2C(=O)c2cc(C3CC3)n[nH]2)cc1 (stereo not given) read -9.667%. CC(C)N1CCC(CN2CCn3nc(CNC(=O)N(C)C)cc3C2)CC1 gave 3.246%. For O=C(O)C(F)(F)F.O=C(O)C(F)(F)F.c1cncc(-c2nnn3c2COCC(CNC2CCOCC2)C3)c1 (stereo not given) the result was -7.253%. With Cn1c(CO)nnc1CC1CCN(Cc2ccc(C#N)cc2)CC1 the screen gave 0.8284%.

9 of the entries, repeated:

For CCOCCN(CCOCC)c1nc(C)nc2sccc12 the result was 3.972% & -1.592%.
For Cc1nccc(-c2cccc(-c3ccn(CC4CCNC4)n3)c2)n1 (stereo not given) the result was -3.675% & -28.15% & -23.4%.
For Cc1noc(C)c1-c1cncc(C2CCCN2Cc2c[nH]cn2)n1 (stereo not given) the result was 4.183%.
For COCC1CN(Cc2ccsc2)Cc2cnn(C)c21 (stereo not given) the result was 18.33%.
For COCCCOc1ccc(C(=O)N(C)Cc2cccc(O)c2)cn1 the result was -11.27%.
For O=C(O)C(F)(F)F.O=C(O)C(F)(F)F.c1cncc(-c2nnn3c2COCC(CNC2CCOCC2)C3)c1 (stereo not given) the result was -7.253%.
For CN1CCC(c2cc(C(F)(F)F)n3ccnc3n2)CC1 the result was -4.017%.
For Cl.c1nc(CCC2CCCCN2)cc(N2CCCC2)n1 (stereo not given) the result was 2.486%.
For FC(F)(F)Oc1ccc(-c2noc([C@@H]3Cc4nc[nH]c4CN3)n2)cc1 the result was 93.02% & 93.75%.

Measurements from “University of Dundee, Small-Polar-MMV Screening Library” (2021), ChEMBL document CHEMBL3988442.